This passage reports AC50 results from PubChem BioAssay AID445 (National Center for Advancing Translational Sciences (NCATS), 2006).

A short description of the assay: IkB Signaling. Conditions: ABC-DLBCL IkBa-CBG/CBR dual luciferase ratio (green luciferase fused to IkBa over red control in OCI-Ly3 lymphoma cells), 4 h. Summed up: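 Curves were fitted separately to fusion (green), unfused (red) and ratio luminescence, then classed by r2, magnitude and activity. Cells: OCI-Ly3, 4 h compound plus doxycycline at 37C; 10 uM MG-132 defined full response.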
Where [1] appears, read: measured here: control luc red channel unless noted.
Setting [2] is: measured here: IkB-luc green channel.
The mark [3] stands for this setting: measured here: control luc red channel.

Some of the results follow. The main result of the screen is listed elsewhere. These columns were measured beside it and carry no call. Most of these compounds were active or inconclusive in the main read-out, so they are no random draw. The note in brackets gives the kind of curve behind each potency; many fits are weak.

Consider `CC(C)(C)OC(=O)N[C@@H](Cc1ccccc1)c1nnc(S(=O)(=O)Cc2ccccc2)o1`, for which, under setting [1], the AC50 was 5.01 µM [falling, partial curve].

As to `O=C(c1cc(-c2ccncc2)nc2ccc(Cl)cc12)N1CCN(C(=O)C2CCCO2)CC1` (stereo not given), the AC50 under setting [1] was 7.94 µM [falling, partial curve].

As to `COc1ccc(N(CC(=O)Nc2cccc(SC)c2)S(C)(=O)=O)cc1Cl`, the concentration at half-maximal activity (AC50) under setting [1] was 12.6 µM [falling, partial curve].

For the molecule `Cc1ccc(NC(=O)c2ccc3oc(=O)c(S(=O)(=O)c4ccccc4)cc3c2)cc1C`, the half-maximal activity concentration (AC50) under setting [2] is 6.31 µM [rising, full curve] and the AC50 under setting [3] is 15.8 µM [falling, partial curve].

Take `O=C(CSc1nnc(CNc2ccc(F)cc2)n1Cc1ccccc1)NCc1ccco1`: the AC50 under setting [1] is 20 µM [falling, single point].

For `Cc1ccc(NC(=O)Cn2nnc(-c3nc(-c4ccncc4)no3)c2N)c(C)c1`, the AC50 under setting [1] was 39.8 µM [rising, partial curve].

Regarding `COc1ccccc1NC(=O)C1=C(C)Nc2nc(SCc3ccc(Cl)cc3)nn2C1c1ccccc1Cl` (stereo not given), the AC50 under setting [1] is 3.16 µM [falling, single point].

On to `CC(NC(=O)C1CCN(C(=O)c2ccc(-n3ccc4ccccc43)s2)CC1)c1ccccc1` (stereo not given), for which, under setting [1], the AC50 was 3.16 µM [falling, partial curve].

As for `CCOC(=O)C1CCN(C(=O)CN2c3ccc(C(C)C)cc3-c3ccccc3S2(=O)=O)CC1`, under setting [1], the half-maximal activity concentration (AC50) was 25.1 µM [falling, partial curve].

In the case of `CC1CCN(C(=O)c2cc3c(=O)n(C)c4ccccc4c3s2)CC1`, the AC50 under setting [1] was 6.31 µM [falling, partial curve].

As to `CCOC(=O)c1c(NC(C)=O)c2c3c(sc2n1Cc1ccc(Cl)cc1)CCCC3`, the AC50 under setting [1] is 10 µM [falling, partial curve].

In the case of `COc1cc(C2NC(=O)N(C)C3=C2C(=O)N(c2cccc(Cl)c2)C3)ccc1O` (stereo not given), under setting [1], the AC50 is 39.8 µM [falling, single point].

With `COc1cccc(-n2c(SCC(=O)Nc3cccc(Cl)c3)nc3c(oc4ccccc43)c2=O)c1`, under setting [1], the half-maximal activity concentration (AC50) is 0.0794 µM [falling, full curve].

With `COc1cccc(Cn2c(=O)cnc3cncnc32)c1`, under setting [1], the AC50 was 3.16 µM [rising, partial curve] [measured here: IkB-luc green channel].

For `CS(=O)(=O)c1oc(-c2ccc(F)cc2)nc1S(=O)(=O)c1ccc(Cl)cc1`, under setting [1], the AC50 is 2.51 µM [falling, full curve].

For the molecule `O=C(NCc1ccc(F)cc1)C1CCCN(c2ncnc3onc(-c4ccc(F)cc4)c23)C1` (stereo not given), under setting [1], the half-maximal activity concentration (AC50) was 25.1 µM [falling, single point].

Regarding `N#C/C(=C(/O)COC(=O)CCCNC(=O)c1ccc(Cl)cc1)c1nc2ccccc2[nH]1`, the AC50 under setting [2] is 31.6 µM [rising, single point] and the AC50 under setting [3] was 12.6 µM [falling, partial curve].

In the case of `COc1ccc(Cl)cc1NC(=O)CSC1=Nc2ccccc2C2=NC(CC(=O)NC3CCCCC3)C(=O)N12` (stereo not given), under setting [1], the half-maximal activity concentration (AC50) was 25.1 µM [falling, partial curve].

Turning to `COc1ccc(C(C)(C)C)cc1NC(=O)Nc1ccc2c(c1)OCO2`, the AC50 under setting [1] was 12.6 µM [falling, partial curve].

Consider `CCOC(=O)c1cc2sccc2n1CC(=O)N1CCCc2ccccc21`, for which the AC50 under setting [1] is 25.1 µM [falling, single point] [measured here: IkB-luc green channel].

Turning to `COc1cccc(CNc2nccn(-c3cc(C)cc(C)c3)c2=O)c1`, the AC50 under setting [1] was 39.8 µM [falling, partial curve].

`COc1ccc(NC(=O)Cn2c(=O)n(Cc3ccco3)c(=O)c3cc(OC)c(OC)cc32)cc1`: the concentration at half-maximal activity (AC50) under setting [1] is 10 µM [falling, partial curve].

`CCCCN(CCCNC(=O)c1ccc(Sc2ccc(Cl)cc2)c(NC(C)=O)c1)c1ccccc1`: under setting [1], the AC50 is 10 µM [falling, partial curve].

In the case of `Cc1cc2c(cc1S(=O)(=O)CCC(=O)N1CCCC(C)C1)OCC(=O)N2` (stereo not given), the AC50 under setting [1] was 39.8 µM [falling, single point].

Turning to `Cc1cc(NC(=O)COc2cccc3cccnc23)no1`, the AC50 under setting [1] is 12.6 µM [falling, partial curve].

Regarding `COCCn1c(CCC(=O)Nc2ccc(C)c(Cl)c2)nc2cccnc21`, under setting [1], the concentration at half-maximal activity (AC50) was 39.8 µM [falling, single point].

Consider `Clc1ccc2nc(NCc3ccccc3)c3nncn3c2c1`, for which the AC50 under setting [1] was 3.98 µM [rising, partial curve].

As for `CCSc1ncc(Cl)c(C(=O)Nc2ccc(S(=O)(=O)N3CCC(C)CC3)cc2)n1`, the AC50 under setting [1] is 0.631 µM [falling, full curve, poor fit].

Take `Cc1c(Cl)cccc1NC(=O)Cn1cc(C(=O)C2CCCCC2)c2ccccc21`: the AC50 under setting [1] is 3.16 µM [falling, full curve].

With `Cn1c(=O)c2c(nc(NCc3ccco3)n2C/C=C/c2ccccc2)n(C)c1=O`, the AC50 under setting [1] is 3.16 µM [falling, full curve, poor fit].

Regarding `Cc1cccc(CNC(=O)C(=O)Nc2ccccc2C)c1`, the AC50 under setting [1] is 20 µM [falling, single point].

In the case of `Fc1ccccc1-n1ncc2c1ncn1nc(-c3ccccc3Cl)nc21`, the AC50 under setting [1] was 3.98 µM [falling, partial curve].

Regarding `CC1CCCCN1CCCNC(=O)c1[nH]c2ccccc2c1Sc1ccc(Cl)cc1` (stereo not given), the concentration at half-maximal activity (AC50) under setting [1] was 6.31 µM [falling, partial curve].

As for `COc1ccccc1CNC(=O)CCC1N=C2c3ccccc3N=C(SCC(N)=O)N2C1=O` (stereo not given), the AC50 under setting [1] was 1.58 µM [rising, full curve, poor fit].

Turning to `Cc1ccc(CNC(=O)c2ccc(CSCc3ccccc3Cl)o2)cc1`, the half-maximal activity concentration (AC50) under setting [1] was 25.1 µM [falling, single point].

For the molecule `Cc1ccc(S(=O)(=O)NCC(c2ccc(N(C)C)cc2)N2CCc3ccccc32)cc1C` (stereo not given), the half-maximal activity concentration (AC50) under setting [1] is 12.6 µM [falling, single point].

`COC(=O)Cc1c(C)c2cc3c(c(C)c2oc1=O)OCN(CCc1ccccc1F)C3`: the AC50 under setting [1] was 25.1 µM [falling, single point].

Consider `Cc1ccc(NC(=O)c2c(NC(=O)Cc3ccccc3)sc3c2CCC3)cc1`, for which the AC50 under setting [1] was 1.58 µM [falling, partial curve].

Usually AC50 stands for the midpoint of the concentration-response curve, whichever way the signal moves.
